# From ChEMBL document CHEMBL4513141, “CO-ADD screening of NIH (USA) - Clinical Collection” (2021)
# This is one part of the list. Results with a measured potency or affinity are listed apart.
# System: Acinetobacter baumannii
# Conditions: Concentration 20 uM; ASSAY_TEST Inhibition of Bacterial Growth; detection method Absorption (OD600); MEDIA CAMHB; plate type 384well; NBS; CORNING #3640; time 18 hr
row,SMILES,Inhibition [%]
1,CC(O)CO.N[C@@H](C(=O)N[C@@H]1C(=O)N2C(C(=O)O)=C(CSc3c[nH]nn3)CS[C@H]12)c1ccc(O)cc1,3.06
2,CC1(C)O[C@@H]2[C@@H](CO[C@@]3(COS(N)(=O)=O)OC(C)(C)O[C@@H]23)O1 [TOPIRAMATE],7.83
3,CC[C@H](C)C(=O)O[C@H]1C[C@@H](C)C=C2C=C[C@H](C)[C@H](CC[C@@H]3C[C@@H](O)CC(=O)O3)[C@H]21 [LOVASTATIN],19.83
4,CCOC(=O)C1=C(C)NC(C)=C(C(=O)OC)C1c1cccc([N+](=O)[O-])c1 (stereo not given) [NITRENDIPINE],8.52
5,CCCC1O[C@@H]2C[C@H]3[C@@H]4CCC5=CC(=O)C=C[C@]5(C)[C@H]4[C@@H](O)C[C@]3(C)[C@]2(C(=O)CO)O1 (stereo not given in full) [BUDESONIDE],21.59
6,CC1(C)O[C@@H]2C[C@H]3[C@@H]4C[C@H](F)C5=CC(=O)C=C[C@]5(C)[C@H]4[C@@H](O)C[C@]3(C)[C@]2(C(=O)CO)O1 [FLUNISOLIDE],20.9
7,NC(=O)c1cccnc1 [NIACINAMIDE],28.24
8,CCCc1nc(C(C)(C)O)c(C(=O)OCc2oc(=O)oc2C)n1Cc1ccc(-c2ccccc2-c2nnn[nH]2)cc1 [OLMESARTAN MEDOXOMIL],21.83
9,CC(=O)[C@@]1(O)CC[C@H]2[C@@H]3C[C@H](C)C4=CC(=O)CC[C@]4(C)[C@H]3CC[C@@]21C,25.1
10,CCN1CCC[C@H]1CNC(=O)c1cc(S(N)(=O)=O)ccc1OC [LEVOSULPIRIDE],30.02
11,C=C1/C(=C\C=C2/CCC[C@]3(C)[C@@H]([C@H](C)/C=C/[C@@H](O)C4CC4)CC[C@@H]23)C[C@@H](O)C[C@@H]1O [CALCIPOTRIENE],8.96
12,CC(=O)O.NCc1ccc(S(N)(=O)=O)cc1 [MAFENIDE ACETATE],27.22
13,C[C@]12CC[C@@H]3c4ccc(O)cc4CC[C@H]3[C@@H]1CC[C@@H]2O [ESTRADIOL],15.11
14,COc1ccc2cc([C@H](C)C(=O)[O-])ccc2c1.[Na+] [NAPROXEN SODIUM],16.35
15,CC(C)(C)C(O)/C=C/c1ccc2c(c1)OCO2 (stereo not given) [STIRIPENTOL],15.26
16,CC(=O)/N=c1/sc(S(N)(=O)=O)nn1C [METHAZOLAMIDE],8.04
17,CCCc1nc2c(C)cc(-c3nc4ccccc4n3C)cc2n1Cc1ccc(-c2ccccc2C(=O)O)cc1,22.54
18,CCN(CC)CC1CCCCN1CC(=O)N1c2ccccc2C(=O)Nc2cccnc21 (stereo not given) [OTENZEPAD],12.92
19,Cc1ccc(O)c([C@H](CCN(C(C)C)C(C)C)c2ccccc2)c1.O=C(O)C(O)C(O)C(=O)O [TOLTERODINE TARTRATE],12.65
20,C[C@@H]1O[C@@H](OC[C@H]2O[C@@H](Oc3c(-c4ccc(O)c(O)c4)oc4cc(O)cc(O)c4c3=O)[C@H](O)[C@@H](O)[C@@H]2O)[C@H](O)[C@H](O)[C@H]1O [RUTIN],25.94

row,SMILES,Inhibition [%]
1,O=c1c(-c2ccccc2)c1-c1ccccc1 [DIPHENCYPRONE],5.75
2,CC(C)(C)NC(=O)[C@@H]1CN(Cc2cccnc2)CCN1C[C@@H](O)C[C@@H](Cc1ccccc1)C(=O)N[C@H]1c2ccccc2C[C@H]1O.O=S(=O)(O)O [INDINAVIR SULFATE],3.63
3,CC(C)(C)NCC(O)c1ccc(O)c(CO)c1.CC(C)(C)NCC(O)c1ccc(O)c(CO)c1.O=S(=O)(O)O (stereo not given) [ALBUTEROL SULFATE],22.62
4,Nc1nnc(-c2cccc(Cl)c2Cl)c(N)n1 [LAMOTRIGINE],21.58
5,CN1CCCC(n2nc(Cc3ccc(Cl)cc3)c3ccccc3c2=O)CC1.Cl (stereo not given) [AZELASTINE HYDROCHLORIDE],10.8
6,CCCNC(C)C(=O)Nc1ccccc1C.Cl (stereo not given) [PRILOCAINE HYDROCHLORIDE],17.21
7,CC(=O)NCCCCCCNC(C)=O [HEXAMETHYLENEBISACETAMIDE],11.13
8,Cc1nccn1CC1CCc2c(c3ccccc3n2C)C1=O (stereo not given) [ONDANSETRON],10.7
9,C[C@]12CCC(=O)C=C1CC[C@@H]1[C@@H]2[C@@H](O)C[C@@]2(C)[C@H]1CC[C@]2(O)C(=O)COC(=O)CCC(=O)O [HYDROCORTISONE HEMISUCCINATE ANHYDROUS],6.01
10,CC(C)(C)NCC(O)COc1cccc2c1CC(O)C(O)C2 (stereo not given) [NADOLOL],24.15
11,NC(=O)N1c2ccccc2CC(=O)c2ccccc21 [OXCARBAZEPINE],6.53
12,Nc1ncnc2c1ncn2[C@@H]1O[C@H](CO)C[C@@H]1O.O,15.93
13,Cc1cccc(Nc2ccncc2S(=O)(=O)NC(=O)NC(C)C)c1 [TORSEMIDE],11.62
14,CNCC[C@@H](Oc1ccccc1C)c1ccccc1.Cl [ATOMOXETINE HYDROCHLORIDE],8.13
15,COCCOC(=O)C1=C(C)NC(C)=C(C(=O)OC(C)C)C1c1cccc([N+](=O)[O-])c1 (stereo not given) [NIMODIPINE],9.05
16,NCC(=O)CCC(=O)O [AMINOLEVULINIC ACID],27.7
17,Cc1ccc(C)c(OCCCC(C)(C)C(=O)O)c1 [GEMFIBROZIL],19.84
18,CC(=O)O[C@H]1C[C@@H]2CC[C@@H]3[C@H](CC[C@@]4(C)[C@H]3C[C@H]([N+]3(C)CCCCC3)[C@@H]4OC(C)=O)[C@@]2(C)C[C@@H]1N1CCCCC1.[Br-] [VECURONIUM BROMIDE],11.14
19,NS(=O)(=O)Cc1noc2ccccc12 [ZONISAMIDE],10.49
20,Cc1ccccc1C(OCCN(C)C)c1ccccc1.Cl (stereo not given) [ORPHENADRINE HYDROCHLORIDE],22.26

# Taken from above.
# CC(C)(C)NCC(O)COc1cccc2c1CC(O)C(O)C2 (stereo not given) [NADOLOL] – Inhibition [%]: 24.15
# CNCC[C@@H](Oc1ccccc1C)c1ccccc1.Cl [ATOMOXETINE HYDROCHLORIDE] – Inhibition [%]: 8.13
# Cc1cccc(Nc2ccncc2S(=O)(=O)NC(=O)NC(C)C)c1 [TORSEMIDE] – Inhibition [%]: 11.62
